Reference: patent publication US20250268876A1, “TREATMENT OF HIDRADENITIS SUPPURATIVA WITH ORISMILAST” (UNION THERAPEUTICS A/S, priority 2021, published 2025)
pEC50: −log10 of the molar value.

Tested on: TNF-α secretion from human whole blood
Assay: Whole blood TNF-α secretion assay (LPS or SEB)
Format: cell-based
Conditions: SEB 1 μg/mL, donor 2

## C[C@@H]1CCN(C(=O)CC#N)C[C@@H]1N(C)c1ncnc2[nH]ccc12 [Tofacitinib]
24 h
  pEC50: 5.08
48 h
  pEC50: 5.84
